The source of these data is publication PMC12127386.

The chains behind the UniProt entries cited, without tags or fusion partners. Where a name states a change or a piece, a line headed by the entry shows the natural chain unless it says otherwise. Residues count along the entry.
UniProt P40763: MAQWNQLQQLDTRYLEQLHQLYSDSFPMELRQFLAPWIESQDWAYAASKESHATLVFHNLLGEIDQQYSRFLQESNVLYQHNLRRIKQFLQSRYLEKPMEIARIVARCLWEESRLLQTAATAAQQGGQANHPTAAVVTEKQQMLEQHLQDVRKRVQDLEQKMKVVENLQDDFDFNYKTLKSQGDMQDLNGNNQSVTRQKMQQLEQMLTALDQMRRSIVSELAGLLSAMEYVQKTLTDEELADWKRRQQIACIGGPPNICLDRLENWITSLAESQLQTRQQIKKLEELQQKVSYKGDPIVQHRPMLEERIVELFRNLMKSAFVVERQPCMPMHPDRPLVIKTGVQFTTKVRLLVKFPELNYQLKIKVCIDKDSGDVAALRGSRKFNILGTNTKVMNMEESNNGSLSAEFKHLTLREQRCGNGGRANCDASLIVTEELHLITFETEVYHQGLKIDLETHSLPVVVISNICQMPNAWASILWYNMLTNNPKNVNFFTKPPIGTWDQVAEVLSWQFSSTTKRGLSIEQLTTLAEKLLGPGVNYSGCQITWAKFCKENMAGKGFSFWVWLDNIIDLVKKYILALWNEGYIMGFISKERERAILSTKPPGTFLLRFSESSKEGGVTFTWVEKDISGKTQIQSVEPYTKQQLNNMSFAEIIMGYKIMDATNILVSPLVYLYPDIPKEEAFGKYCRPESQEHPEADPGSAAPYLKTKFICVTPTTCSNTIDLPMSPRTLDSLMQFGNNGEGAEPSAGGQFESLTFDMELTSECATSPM
STAT3 fragment 1-321 aa: residues 1-321 of P40763
UniProt Q96H22: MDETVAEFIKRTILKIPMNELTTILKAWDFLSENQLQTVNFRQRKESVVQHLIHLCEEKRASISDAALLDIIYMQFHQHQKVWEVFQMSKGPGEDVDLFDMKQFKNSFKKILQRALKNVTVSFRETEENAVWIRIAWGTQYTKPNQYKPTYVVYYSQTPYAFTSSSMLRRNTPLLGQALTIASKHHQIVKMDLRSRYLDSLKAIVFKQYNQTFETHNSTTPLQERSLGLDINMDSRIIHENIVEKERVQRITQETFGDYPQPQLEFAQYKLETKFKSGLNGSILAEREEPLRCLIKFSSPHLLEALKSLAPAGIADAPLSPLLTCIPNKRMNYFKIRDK

No constants are given. Whether binding was seen depends on the method and setting. Binding seen in cells or lysates may run through a third protein. Some binding calls cover weakened binding; strength is not graded here.

For test [1], the target named is Signal transducer and activator of transcription 3 (STAT3), as in the GST pull-down of Figure 6C (UniProt P40763). Briefly: pull-down; GST pull-down; which protein carried GST and where the proteins came from are not told.
Test [2] has as its target Signal transducer and activator of transcription 3 (STAT3), as in the coimmunoprecipitation of Figure 6B (UniProt P40763). Briefly: co-IP; coimmunoprecipitation of CENPN and STAT3; cells, antibodies and bait not told.
Test [3] deals with STAT3, partner of the CENPN fragments in the protein truncation assay (Figure 6D, E) (UniProt P40763). Briefly: co-IP; protein truncation assay: truncated sequences in pcDNA3.1, 293T cells transfected, immunoprecipitation of the fragments, western blotting. (In general: In western blotting, separated proteins are transferred to a membrane and probed.)
A further test deals with STAT3 fragment 1-321 aa (UniProt P40763). Described as above.

Take “Centromere protein N (CENPN), as in the GST pull-down of Figure 6C (from UniProt Q96H22 1-339)”: the binding result in test [1] is reported as “binds”. As to “Centromere protein N (CENPN), as in the coimmunoprecipitation of Figure 6B (from UniProt Q96H22 1-339)”, the binding entry in test [2] is reported as “binds”. For the substance “CENPN fragment 186-339 aa (from UniProt Q96H22 186-339) (domain or fragment)”, in test [3], the binding result was “binds”. As for “CENPN, partner of the STAT3 fragments in the protein truncation assay (Figure 6D, E) (from UniProt Q96H22 1-339)”, in the test with STAT3 fragment 1-321 aa, the binding entry is “binds”.
